Data taken from PubChem BioAssay AID662 (National Center for Advancing Translational Sciences (NCATS), 2007).
This is one part of the list. These are further read-outs of the screen, such as a control signal, another cell line or another target. No call is given for them. The list favours compounds with an active or inconclusive main result. Potencies come from curve fits of mixed quality, noted in brackets.

assay: Cell signaling CRE-BLA (Fsk stim); conditions: CHO CRE-bla reporter (cAMP response element driving beta-lactamase), forskolin EC10, beta-lactamase ratio; measured here: 460 nm blue channel
How it was run: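 CHO CRE-bla cells, overnight plating in Opti-MEM with 0.5% dialyzed FBS; cpd titration + EC10 NKH 477, 3 h 37 °C; CCF4 2 h RT; ex 405/em 460 vs 530 ratio → %Activity, AC50.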

Row | SMILES | AC50
1 | COc1ccc(C)cc1NC(=O)c1cnc2scc(C)n2c1=O | 12.6 µM [rising, partial curve]
2 | CC1CN(c2oc(Cc3cccc4ccccc34)nc2C#N)CC(C)O1 (centres undefined) | 12.6 µM [rising, single point]
3 | COc1ccc(CNc2ncncc2-c2ccc(C(=O)N(C)C)cc2)c(OC)c1 | 20 µM [rising, partial curve]
4 | Cc1nc(Cc2nnc(SCc3nc(N)nc(Nc4ccccc4C)n3)o2)cs1 | 10 µM [rising, partial curve]
5 | Cc1cc2ccccc2n1CCNC(=O)C1CC1 | 6.31 µM [rising, partial curve]
6 | CN(C)c1ccnc2sc3c(=O)n(Cc4ccccc4)cnc3c12 | 0.0501 µM [falling, full curve, poor fit]
7 | O=C(Nc1nonc1NC(=O)C1CCCCC1)C1CCCCC1 | 0.631 µM [rising, partial curve]
8 | Cn1c(SCc2nnc(-c3ccc(F)cc3)o2)nnc1C1COc2ccccc2O1 (centres undefined) | 0.00398 µM [falling, full curve, poor fit]
9 | CCN1C(=O)/C(=C2/Sc3ccc(OC)cc3N2C)SC1=Nc1cccc(O)c1 | 3.98 µM [rising, full curve]
10 | CCCC1C(C#N)=C(N)Oc2cc(C)n(C)c(=O)c21 (centres undefined) | 12.6 µM [rising, partial curve]
11 | COc1ccccc1C1CC(=O)Nc2cc3c(cc21)OCCO3 (centres undefined) | 15.8 µM [rising, single point]
12 | CCCn1c(SCC(=O)Nc2ccc3c(c2)OCO3)nc2c1c(=O)n(C)c(=O)n2C | 3.98 µM [rising, partial curve]
13 | O=C(Nc1ccc(Cl)cc1)c1cc2nc(-c3ccco3)cc(C(F)(F)F)n2n1 | 5.01 µM [rising, partial curve]
14 | CC1CN(C(=O)C(C)N2C(=O)c3ccccc3C2=O)CC(C)O1 (centres undefined) | 0.00316 µM [falling, full curve, poor fit]
15 | COc1cc(OC)cc(C(=O)OCn2nnc3ccccc3c2=O)c1 | 10 µM [rising, partial curve]
16 | COc1cccc(-c2ccc3ncnc(NCc4ccc(OC)cc4OC)c3c2)c1 | 3.98 µM [rising, full curve]
17 | O=C(CCCc1ccccc1)NC1CCSC1=O (centres undefined) | 0.794 µM [rising, single point]
18 | O=C(Nc1ccc(N2CCCC2)cc1)c1ccc(Br)o1 | 3.98 µM [falling, partial curve]
19 | Cc1cnc(CNc2ncnc3ccc(-c4ccccc4C(F)(F)F)cc23)cn1 | 10 µM [rising, partial curve]
20 | O=C(Nn1c(=O)[nH]c2ccsc2c1=O)c1ccccc1 | 0.0501 µM [rising, full curve]
21 | COc1ccc(-c2nnc3c4ccccc4c(C)nn23)cc1S(=O)(=O)N1CCN(CCO)CC1 | 10 µM [rising, partial curve]
22 | Cc1nc2cnc(OCc3ccccc3)nc2n(CCc2ccccc2)c1=O | 10 µM [rising, partial curve]
23 | CC(C)(Oc1ccc(Cl)cc1)C(=O)O | 10 µM [falling, full curve, poor fit]

Row | SMILES | AC50
24 | CCOC(=O)C(Sc1nnc2c3ccccc3n(CC)c2n1)C(=O)OCC | 3.16 µM [rising, full curve]
25 | CCC(C)c1ccc2oc(-c3ccc(NC(=O)c4ncn[nH]4)cc3)nc2c1 (centres undefined) | 2.51 µM [falling, full curve]
26 | CN1CCc2ccccc2C1C1CCNCC1 (centres undefined) | 3.16 µM [falling, single point]
27 | COC(=O)c1ccc(NCC(=O)c2ccccc2)cc1 | 0.398 µM [falling, full curve]
28 | CCC(C)n1[nH]c(=O)c2c(C)cc(C)nc21 (centres undefined) | 12.6 µM [rising, partial curve]
29 | CC(CN1CCOCC1)C(=O)O (centres undefined) | 10 µM [falling, partial curve]
30 | CCOC(=O)CSc1nc2c(c(=O)[nH]c(=O)n2C)n1CCCc1ccccc1 | 2.51 µM [rising, single point]
31 | CCn1c(SCC(=O)Nc2ccccc2C(=O)OC)nnc1-c1ccoc1C | 15.8 µM [rising, single point]
32 | COC(=O)[C@H](C)NC(=O)NC1CCCc2ccccc21 (some centres undefined) | 0.0794 µM [falling, full curve]
33 | O=C(CSc1nc2ccccc2c(=O)[nH]1)c1cccs1 | 12.6 µM [rising, partial curve]
34 | COc1ccc(Cl)cc1NC(=O)CCn1cnc2ccccc2c1=O | 15.8 µM [rising, partial curve, poor fit]
35 | COc1ccc(-n2c(=O)c(-c3ccc(F)cc3)nc3cnc(N4CCNCC4)nc32)cc1 | 6.31 µM [rising, partial curve]
36 | CN(C)c1ncc2nc(-c3ccccc3)c(=O)n(Cc3cccs3)c2n1 | 3.16 µM [rising, full curve]
37 | CC(C)CCNC(=O)CCn1nc(-c2ccccc2)ccc1=O | 25.1 µM [rising, single point]
38 | COC(=O)c1ccc(Nc2cc(C)nc3nc(C)nn23)cc1 | 7.94 µM [rising, partial curve]
39 | CCOC(=O)CCCNC(=O)COc1ccccc1C#N | 5.01 µM [falling, single point]
40 | C=C1C(C(=O)N2CCN(C)CC2)C1C(=O)N1CCN(C)CC1 (centres undefined) | 0.398 µM [falling, partial curve]
41 | CC1CCCCN1c1nc(-c2ccncc2)nc2ccccc12 (centres undefined) | 15.8 µM [rising, partial curve]
42 | COc1ccc(CCn2c(N)c(C#N)c3nc4ccccc4nc32)cc1OC | 12.6 µM [rising, partial curve]
43 | CC(=O)Nc1ccc(NC(=O)Cn2cc3c(n2)CCC(C)C3)cc1 (centres undefined) | 25.1 µM [rising, single point]
44 | CCOC(=O)C1=C(CN2CCC(C)CC2)NC(=O)NC1c1ccc(Cl)cc1 (centres undefined) | 10 µM [rising, partial curve]
45 | CCCC(=O)Nc1sc(C(=O)OC)c(C)c1C(N)=O | 10 µM [rising, partial curve]
46 | CCOC(=O)c1ccc(NC(=O)N2CCN(CCc3ccccc3)CC2)cc1 | 12.6 µM [falling, partial curve, poor fit]

2 compounds picked at random from the list so far, as already listed:
Row | SMILES | AC50
36 | CN(C)c1ncc2nc(-c3ccccc3)c(=O)n(Cc3cccs3)c2n1 | 3.16 µM [rising, full curve]
26 | CN1CCc2ccccc2C1C1CCNCC1 (centres undefined) | 3.16 µM [falling, single point]

Additional entries.

Row | SMILES | AC50
47 | Cc1cc(C)nc(SCC(=O)Nc2ncc3c(n2)CCCC3=O)n1 | 12.6 µM [rising, single point]
48 | COc1ccc(Oc2ncc3nc(-c4ccc(F)cc4)c(=O)n(C[C@H]4CCCO4)c3n2)cc1 | 12.6 µM [rising, single point]
49 | CCN(CC(=O)Nc1c(C(=O)OC)[nH]c2ccc(Cl)cc12)c1ccc2c(c1)OCO2 | 15.8 µM [falling, single point]
50 | CCn1c(=N)n(CC(=O)c2cccc(OC)c2)c2ccccc21 | 10 µM [rising, partial curve]
51 | CCCOC(=O)C1=C(C)NC2=C(C(=O)CCC2)C1c1cccc(OC)c1OC (centres undefined) | 10 µM [rising, partial curve]
52 | COc1ccc(N2CCCn3c2nc2c3c(=O)n(Cc3ccccc3F)c(=O)n2C)c(OC)c1 | 15.8 µM [falling, single point]
53 | CCN(C(=O)COc1cc(=O)n(CC)c2ccccc12)c1cccc(Cl)c1 | 7.94 µM [rising, partial curve]
54 | CCn1nc(NC(=O)c2ccccn2)c2cc3cccc(C)c3nc21 | 1.58 µM [rising, partial curve]
55 | COc1ccc(-c2ccc(=N)n(CCCC(=O)O)n2)cc1 | 20 µM [falling, single point]
56 | O=S1(=O)C=C(SCCN2CCCCC2)c2ccccc21 | 0.00398 µM [falling, full curve, poor fit]
57 | CCOCCCn1c(=N)c(C(=O)NCc2ccc3c(c2)OCO3)cc2c(=O)n3ccccc3nc21 | 0.251 µM [rising, partial curve]
58 | CN(C)c1nc(OCCOC(=O)c2ccccc2)nc(N(C)C)n1 | 5.01 µM [rising, partial curve]
59 | CCOC(=O)c1c(C)[nH]c(C(=O)COC(=O)CSCC(=O)N(CC)CC)c1C | 10 µM [rising, single point]
60 | CN1CCN(C(=O)c2cc3nc(-c4ccc(F)cc4)cc(C(F)(F)F)n3n2)CC1 | 12.6 µM [rising, single point]
61 | Cc1ccccc1-c1cc(Nc2ccccc2)ncn1 | 2.51 µM [rising, full curve]
62 | CCC(C)NC(=O)CCNS(=O)(=O)c1ccc(Br)cc1 (centres undefined) | 3.98 µM [rising, partial curve]
63 | COc1ccccc1-c1cc(NCc2cccnc2)ncn1 | 10 µM [rising, partial curve]
64 | COc1ccc(C2c3sc(=O)[nH]c3SC3C4CCC(C4)C23)cc1 (centres undefined) | 3.16 µM [rising, partial curve]
65 | Cc1sc2nc(SCC(=O)c3cc(C)n(CC4CCCO4)c3C)n(C(C)C)c(=O)c2c1C (centres undefined) | 10 µM [rising, partial curve]
66 | N#CCSc1nnc(COc2cccc3ccccc23)n1-c1cccc(Cl)c1 | 31.6 µM [falling, single point]
67 | COc1ccc(S(=O)(=O)Cc2ccc(C(=O)NCCCN(C)c3ccccc3)o2)cc1 | 10 µM [rising, partial curve, poor fit]
68 | CCOC(=O)c1cccc(NC(=O)c2cc3sccc3n2C)c1 | 25.1 µM [falling, single point]
69 | CCCCNC(=O)c1cc2c(=O)n3cccc(C)c3nc2n(CCN2CCOCC2)c1=N | 12.6 µM [rising, partial curve]

Shown as a markdown table: entries from further up.

| Row | SMILES | AC50 |
| --- | --- | --- |
| 60 | CN1CCN(C(=O)c2cc3nc(-c4ccc(F)cc4)cc(C(F)(F)F)n3n2)CC1 | 12.6 µM [rising, single point] |
| 61 | Cc1ccccc1-c1cc(Nc2ccccc2)ncn1 | 2.51 µM [rising, full curve] |
